One substance from article PMC8310061 can be followed below.

By UniProt entry, the sequences of proteins in these tests, tags left out.
UniProt P75024: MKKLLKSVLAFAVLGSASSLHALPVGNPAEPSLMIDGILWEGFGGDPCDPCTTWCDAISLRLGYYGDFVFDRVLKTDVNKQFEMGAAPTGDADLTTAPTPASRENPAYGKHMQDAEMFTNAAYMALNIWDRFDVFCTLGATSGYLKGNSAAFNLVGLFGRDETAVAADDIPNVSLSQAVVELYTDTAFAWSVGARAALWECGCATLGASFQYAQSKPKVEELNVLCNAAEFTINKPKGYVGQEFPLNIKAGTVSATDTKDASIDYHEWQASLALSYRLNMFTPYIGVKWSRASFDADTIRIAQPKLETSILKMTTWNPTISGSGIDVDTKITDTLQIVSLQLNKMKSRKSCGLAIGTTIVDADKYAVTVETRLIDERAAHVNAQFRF

The target of experiment [1] is Chlamydia muridarum major outer membrane protein (MOMP) (C. muridarum) (UniProt P75024). Description: SDS-PAGE without heat and reducing agent, Western blot; purified MOMP-tNLP; blot probed with mAb40; compared with a sample boiled 5 min in 50 mM DTT; both purified. (In general: In western blotting, separated proteins are transferred to a membrane and probed.)
The target is the same in experiment [2]. Description: SDS-PAGE without heat and reducing agent, Western blot; purified MOMP-telodisk (lipids and telodendrimer, no scaffold protein); Western blot in the absence of heat and reducing agent; both purified.

No constants are given. Whether binding was seen depends on the method and setting. Some binding calls cover weakened binding; strength is not graded here.

Turning to “Chlamydia muridarum major outer membrane protein (MOMP) (from UniProt P75024 1-387)”, the binding result in experiment [1] and in experiment [2] was “binds” throughout.
